This is an account of results in article PMC7515921, “MFSD7C switches mitochondrial ATP synthesis to thermogenesis in response to heme” (Nature Communications, 2020).

Results are given in words; binding and its absence hold for the method and conditions named. In cells and extracts the contact can be indirect. Here binding means that the protein was enriched with, or labelled near, the bait; the list need not be complete. Tags and fused reporters may be left off the sequences shown.

In the test the target is T1, MFSD7C tagged with both Myc and FLAG epitopes (murine) (mouse) (UniProt Q91X85).
T1 sequence: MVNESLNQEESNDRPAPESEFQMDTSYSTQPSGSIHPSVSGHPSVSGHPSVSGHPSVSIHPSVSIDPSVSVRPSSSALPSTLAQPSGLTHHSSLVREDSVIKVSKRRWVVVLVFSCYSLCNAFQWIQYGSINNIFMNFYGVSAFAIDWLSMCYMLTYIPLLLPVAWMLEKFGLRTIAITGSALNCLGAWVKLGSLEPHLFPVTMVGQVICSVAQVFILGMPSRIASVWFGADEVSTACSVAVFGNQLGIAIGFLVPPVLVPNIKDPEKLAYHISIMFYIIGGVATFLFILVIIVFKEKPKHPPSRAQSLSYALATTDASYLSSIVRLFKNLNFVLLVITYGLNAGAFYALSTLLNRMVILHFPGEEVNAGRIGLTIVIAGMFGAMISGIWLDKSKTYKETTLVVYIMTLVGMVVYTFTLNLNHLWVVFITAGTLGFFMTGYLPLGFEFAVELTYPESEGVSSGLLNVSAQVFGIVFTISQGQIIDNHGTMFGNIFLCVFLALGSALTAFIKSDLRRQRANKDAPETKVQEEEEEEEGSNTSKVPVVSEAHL
Kind of test: affinity purification with mass spectrometry; lysate of MH-S cells expressing MFSD7C-FLAG-Myc (control: GFP alone); 20 mM Tris-HCl pH 7.4, 150 mM NaCl, 0.1% NP-40, 10% glycerol; anti-FLAG beads, 3x FLAG peptide elution, then anti-Myc beads; LC-MS/MS.

B1: ATP5c1 (endogenous) (protein, UniProt Q91VR2 26-298)
chain: ATLKDITRRLKSIKNIQKITKSMKMVAAAKYARAERELKPARVYGTGSLALYEKADIKAPEDKKKHLIIGVSSDRGLCGAIHSSVAKQMKNEVAALTAAGKEVMIVGVGEKIKGILYRTHSDQFLVSFKDVGRKPPTFGDASVIALELLNSGYEFDEGSIIFNQFKSVISYKTEEKPIFSLNTIATAETMSIYDDIDADVLQNYQEYNLANLIYYSLKESTTSEQSARMTAMDNASKNASDMIDKLTLTFNRTRQAVITKELIEIISGAAALD
In the case of B1, the binding result is given as “binds”.

B2: Slc25a5 (protein, UniProt P51881 1-298)
chain: MTDAAVSFAKDFLAGGVAAAISKTAVAPIERVKLLLQVQHASKQITADKQYKGIIDCVVRIPKEQGVLSFWRGNLANVIRYFPTQALNFAFKDKYKQIFLGGVDKRTQFWRYFAGNLASGGAAGATSLCFVYPLDFARTRLAADVGKAGAEREFKGLGDCLVKIYKSDGIKGLYQGFNVSVQGIIIYRAAYFGIYDTAKGMLPDPKNTHIFISWMIAQSVTAVAGLTSYPFDTVRRRMMMQSGRKGTDIMYTGTLDCWRKIARDEGSKAFFKGAWSNVLRGMGGAFVLVLYDEIKKYT
On to B2, for which the binding result is reported as “binds”.

B3: Slc25a4 (protein, UniProt P48962 1-298)
chain: MGDQALSFLKDFLAGGIAAAVSKTAVAPIERVKLLLQVQHASKQISAEKQYKGIIDCVVRIPKEQGFLSFWRGNLANVIRYFPTQALNFAFKDKYKQIFLGGVDRHKQFWRYFAGNLASGGAAGATSLCFVYPLDFARTRLAADVGKGSSQREFNGLGDCLTKIFKSDGLKGLYQGFSVSVQGIIIYRAAYFGVYDTAKGMLPDPKNVHIIVSWMIAQSVTAVAGLVSYPFDTVRRRMMMQSGRKGADIMYTGTLDCWRKIAKDEGANAFFKGAWSNVLRGMGGAFVLVLYDEIKKYV
On to B3, for which the binding result is “binds”.
